Some results were stated once for a whole list of compounds, not compound by compound. Some ranges recur; such a range may be that of the whole group of compounds.
The compounds below were run on Mycobacterium fortuitum (assay: Anti-mycobacterial MIC). Settings: MIC vs INH.
Format: cell-based

Row | SMILES | Potency relative to the standard reference (INH)
1 | O=C(NNC(=O)c1cnccn1)c1ccncc1 [PZA-INH] | 2-3 folds
2 | CCC(C)C(NC(=O)c1cnccn1)C(=O)NNC(=O)c1ccncc1 (centres unmarked) [PZA-Ile-INH] | 2-3 folds
3 | CC(C)C[C@H](NC(=O)c1cnccn1)C(=O)NNC(=O)c1ccncc1 [PZA-Leu-INH] | 2-3 folds
4 | CC(C)C[C@H](NC(=O)c1cnccn1)C(=O)O [PZA-Leu-OH] | 2-3 folds
5 | CSCC[C@H](NC(=O)c1cnccn1)C(=O)NNC(=O)c1ccncc1 [PZA-Met-INH] | 2-3 folds
6 | O=C(NNC(=O)[C@H](Cc1ccccc1)NC(=O)c1cnccn1)c1ccncc1 [PZA-Phe-INH] | 2-3 folds
7 | O=C(NNC(=O)[C@H](Cc1c[nH]c2ccccc12)NC(=O)c1cnccn1)c1ccncc1 [PZA-Trp-INH] | 2-3 folds
8 | CC(C)[C@H](NC(=O)c1cnccn1)C(=O)NNC(=O)c1ccncc1 [PZA-Val-INH] | 2-3 folds

From US11584725B2, “Pyrazinoic acid conjugates and hybrid conjugates” (Augusta University Research Institute, Inc., priority 2018, dated 2023)
